In patent US20140243239A1, “MULTIPLEXED KINASE INHIBITOR BEADS AND USES THEREOF” (University of North Carolina at Chapel Hill, priority 2011, published 2014):
At least one structure is not confirmed: it was looked up by name or label, or the drawing left a doubt. Some entries share one result that the patent states for a list of compounds.

How the values were obtained:
[1] = system: SUM159 cells; experiment: SUM159 cell growth (Cell-Titer Glo, cell counts); format: cell-based, human; conditions: cotreatment 72 h (FIG. 12F)
Experimental: (§1) Cell Culture: MDA-MB-231 cells were grown in DMEM/F12 supplemented with 10% FBS. SUM-159 cells were grown in DMEM/F12 supplemented with 10% FBS 1 μg/mL hydrocortisone, and 5 μg/mL insulin. SUM159-R cells were continually grown in the presence of 5 μM AZD6244. For SILAC labeling, cells were grown for five doublings in arginine- and lysine-depleted media (as above) supplemented with either unlabeled L-arginine (42 mg/L) and L-lysine (71 mg/L) or equimolar amounts of heavy isotope labeled [13C6,15N4]arginine (Arg10) and [13C6]lysine (Lys6) (Cambridge Isotope Laboratories). Proliferation was quantified using Cell-Titer Glo Luminescent Cell Viability Assay (Promega). Fresh media containing DMSO or kinase inhibitors was added daily and experiments were performed in triplicate.

[2] = system: MDA-MB-231 cells; experiment: MDA-MB-231 cell growth (Cell-Titer Glo); format: cell-based, human; conditions: combination with AZD6244 (FIG. 12C, 12D, 12G)
Experimental: as §1

[3] = molecular target: kinases; experiment: Profiling of individual inhibitor beads: kinases bound from 5 mg cellular protein extract (MIB/MS); format: binding; conditions: 5 mg cell lysate protein

Structure (SMILES) | growth of SUM159 cells, RAF inhibitor in combination with AZD6244 [1] | MDA-MB-231 cell growth in combination with AZD6244 [2] | kinase binding affinity class of ligand [3]
CN(C)CCOc1ccc(-c2nc(-c3ccncc3)c(-c3ccc4c(c3)CC/C4=N\O)[nH]2)cc1 [SB590885] | stimulated the growth | inhibited MDA-MB-231 proliferation | –
Cn1cc(C2=C(c3c4n(c5ccccc35)CCC(CN)C4)C(=O)NC2=O)c2ccccc21 (stereo not drawn) [Bis-X] | – | – | specific binding affinity (a ligand that binds to 20 or fewer kinases by profiling individual inhibitor beads using 5 mg of cell lysate protein)
